Values from PubChem BioAssay AID1224826 (NIAID, 2016)
Purpose: 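Genes that change LPS-induced Tnf promoter activity in mouse macrophages when knocked down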 (primary screen). Cells: RAW264.7 G9 macrophages from mouse bearing reporters for p65 (GFP) and the Tnf promoter (mCherry). Reagent: siRNA pool against mouse genes, 100 nM. Timing: 16 h of LPS stimulation, after 2 days of siRNA transfection. Conditions: bacterial lipopolysaccharide (Salmonella minnesota R595), 10 ng/ml. Measurement: 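Nuclear mCherry signal of the Tnf promoter reporter measured by imaging after background removal, scaled to each plate median and turned into robust z-scores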. Reading the numbers: Tnf reporter robust z-score: higher = stronger Tnf promoter reporter signal after LPS; Tnf reporter intensity: higher = stronger Tnf promoter reporter signal. Rule for the call: 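a well counts as active at a score of -1.3 or below (Tlr4 knock-down control median) or above 3 (raised signal); controls and wells holding fewer than 50 cells are excluded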. Meaning of the calls: active = Tnf reporter clearly lowered or raised; inactive = no clear change in Tnf reporter.
The deposit covers about 17,000 reagents; shown is a part drawn at random. About 1,110 of them (6.6%) count as active. 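Active means lowered or raised reporter signal; replicate intensities are raw and not normalised per plate.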 No sequences are given here.

gene,Tnf reporter robust z-score,fewer than 50 cells in well,"Tnf reporter intensity, replicate 1","Tnf reporter intensity, replicate 2",Outcome
Ankrd23,0.24,enough cells in well,236,190,inactive
Dpy19l1,0.31,enough cells in well,275,89,inactive
Slc43a1,-0.07,enough cells in well,214,139,inactive
Foxo1,-0.76,enough cells in well,176,189,inactive
Tgif2,0.15,enough cells in well,215,159,inactive
Alox12,-0.44,enough cells in well,104,228,inactive
Bid,-0.58,enough cells in well,122,138,inactive
Or51r1,-1.76,enough cells in well,55.7,44.3,active
Anxa13,-0.36,enough cells in well,146,91.7,inactive
Tmed1,-0.92,enough cells in well,159,109,inactive
Fbxo16,-1.19,enough cells in well,145,84.3,inactive
Mrgprx2,0.3,enough cells in well,275,258,inactive
Mmp25,-0.37,enough cells in well,243,170,inactive
Ercc5,0.83,enough cells in well,323,262,inactive
Mrpl30,1.22,enough cells in well,318,151,inactive
Cort,1.77,enough cells in well,278,299,inactive
Iap (retired record),0.64,enough cells in well,258,143,inactive
Arhgap20,-0.23,enough cells in well,166,145,inactive
Mblac1,-0.13,enough cells in well,5.51,156,inactive
Or10j7,-0.88,enough cells in well,122,89,inactive
Or11g26,1.87,enough cells in well,123,194,inactive
Aplnr,0.29,enough cells in well,196,395,inactive
Cdkal1,-0.58,enough cells in well,137,136,inactive
Fth1,0.02,enough cells in well,292,206,inactive
V1rb6 (retired record),-1.67,enough cells in well,47.3,42.9,active
Txn2,0.54,enough cells in well,115,106,inactive
Ikzf2,-0.03,enough cells in well,223,233,inactive
Musk,0.39,enough cells in well,216,123,inactive
Gpha2,0.81,enough cells in well,245,255,inactive
Calml4,-0.2,enough cells in well,167,146,inactive
Spata3,,fewer than 50 cells per well; well left out of calls,67.8,93.3,inactive
Mul1,,fewer than 50 cells per well; well left out of calls,475,61.9,inactive
Nop2,-0.69,enough cells in well,227,107,inactive
Azin2,-0.68,enough cells in well,122,126,inactive
Cep95,,fewer than 50 cells per well; well left out of calls,180,67.7,inactive

Active calls, of those listed so far:
gene,Tnf reporter robust z-score,fewer than 50 cells in well,"Tnf reporter intensity, replicate 1","Tnf reporter intensity, replicate 2",Outcome
Or51r1,-1.76,enough cells in well,55.7,44.3,active
V1rb6 (retired record),-1.67,enough cells in well,47.3,42.9,active

Continued:
gene,Tnf reporter robust z-score,fewer than 50 cells in well,"Tnf reporter intensity, replicate 1","Tnf reporter intensity, replicate 2",Outcome
Qrfpr,-0.02,enough cells in well,208,304,inactive
Rhbdd3,,fewer than 50 cells per well; well left out of calls,95,93.8,inactive
Ankrd27,-0.9,enough cells in well,163,112,inactive
Rdh13,1.83,enough cells in well,208,205,inactive
Mical2,-1.06,enough cells in well,106,96.3,inactive
Bag4,0.77,enough cells in well,176,213,inactive
Or2y6,0.57,enough cells in well,281,222,inactive
Slc13a2,1.58,enough cells in well,171,137,inactive
Iqcf4,1.17,enough cells in well,295,125,inactive
Chrng,-0.85,enough cells in well,197,128,inactive
Iapp,-0.99,enough cells in well,169,116,inactive
Mtf2,0.92,enough cells in well,406,219,inactive
Pdxdc1,-1.26,enough cells in well,70.3,119,inactive
Capza2,-0.22,enough cells in well,130,155,inactive
Polr1c,3.73,enough cells in well,303,274,active
Foxj3,-0.93,enough cells in well,98.8,112,inactive
Fhad1,-0.16,enough cells in well,154,163,inactive
Ostn,1.16,enough cells in well,150,237,inactive
Itih3,0.38,enough cells in well,246,127,inactive
4931422A03Rik,,fewer than 50 cells per well; well left out of calls,137,29.8,inactive
Or3a10,-0.83,enough cells in well,243,50.2,inactive
Ubc,-0.16,enough cells in well,166,278,inactive
Prpf38b,-1.3,enough cells in well,164,34.5,active
